According to patent US7582632B2, “Tri(cyclo) substituted amide compounds” (Prosidion Limited, priority 2003, dated 2009):
Some entries share one result that the patent states for a list of compounds.

Biological target: T1, GST-GK, derived from human liver GK (Homo sapiens, UniProt P35557)
T1 sequence (P35557 1-466 isoform P35557-2): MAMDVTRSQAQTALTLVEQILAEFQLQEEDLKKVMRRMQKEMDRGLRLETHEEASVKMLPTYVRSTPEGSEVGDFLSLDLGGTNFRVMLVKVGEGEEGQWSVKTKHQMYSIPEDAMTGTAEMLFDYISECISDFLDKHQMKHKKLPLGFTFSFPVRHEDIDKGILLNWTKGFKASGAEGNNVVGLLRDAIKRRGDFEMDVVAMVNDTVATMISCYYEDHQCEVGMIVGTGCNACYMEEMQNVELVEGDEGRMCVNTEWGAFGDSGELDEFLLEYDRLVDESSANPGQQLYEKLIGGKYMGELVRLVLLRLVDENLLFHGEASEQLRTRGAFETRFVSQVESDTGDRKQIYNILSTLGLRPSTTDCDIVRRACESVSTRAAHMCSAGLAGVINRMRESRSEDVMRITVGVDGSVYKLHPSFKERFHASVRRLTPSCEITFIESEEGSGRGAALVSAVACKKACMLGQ
Experiment: In vitro GK activity (G6PDH-coupled GST-GK assay)
Assay type: biochemical
Conditions: 5 mM D-Glc, 30° C.

Structure (SMILES)	compound concentration that produced a 50% increase in GK activity (FA 1.5) [µM]
O=C(Nc1ncc(Cl)s1)C(=Cc1cccs1)c1cccc(Br)c1 [2-(3-Bromophenyl)-N-(5-chlorothiazol-2-yl)-3-thiophen-2-yl-acrylamide]	> 30
O=C(Nc1nccs1)C(=Cc1cccs1)c1cccc(Br)c1 [2-(3-Bromophenyl)-N-thiazol-2-yl-3-thiophen-2-yl-acrylamide]	> 30
O=C(Nc1nccs1)C(CC1CCOCC1)c1cccc(NS(=O)(=O)C2CC2)c1 (stereo not shown) [2-(3-Cyclopropanesulfonylaminophenyl)-3-(tetrahydropyran-4-yl)-N-thiazol-2-yl-propionamide]	> 30
CS(=O)(=O)Nc1cccc(C(CC2CCOCC2)C(=O)Nc2nccs2)c1 (stereo not shown) [2-(3-Methanesulfonylaminophenyl)-3-(tetrahydropyran-4-yl)-N-thiazol-2-yl-propionamide]	> 30
CC(=O)Nc1ccc(C(=CC2CCOCC2)C(=O)Nc2ncc(Cl)s2)cc1 [2-(4-Acetylaminophenyl)-N-(5-chlorothiazol-2-yl)-3-(tetrahydropyran-4-yl)acrylamide]	> 30
Nc1ccc(C(=CC2CCOCC2)C(=O)Nc2nccs2)cc1 [2-(4-Aminophenyl)-3-(tetrahydro-pyran-4-yl)-N-thiazol-2-yl-acrylamide]	> 30
Nc1ccc(C(=CC2CCOCC2)C(=O)Nc2ncc(Cl)s2)cc1 [2-(4-Aminophenyl)-N-(5-chloro-thiazol-2-yl)-3-(tetrahydro-pyran-4-yl)acrylamide]	> 30
Nc1ccc(C(CC2CCOCC2)C(=O)Nc2ncc(Cl)s2)cc1 (stereo not shown) [2-(4-Aminophenyl)-N-(5-chlorothiazol-2-yl)-3-(tetrahydropyran-4-yl)-propionamide]	> 30
O=C(Nc1nncs1)C(=Cc1ccco1)c1ccc(Br)cc1 [2-(4-Bromophenyl)-3-furan-2-yl-N-[1,3,4]thiadiazol-2-yl-acrylamide]	> 30
O=C(Nc1nc(C(F)(F)F)cs1)C(=Cc1cccs1)c1ccc(Br)cc1 [2-(4-Bromophenyl)-3-thiophen-2-yl-N-(4-trifluoromethyl-thiazol-2-yl)acrylamide]	> 30
Cc1nc(NC(=O)C(=Cc2cccs2)c2ccc(Br)cc2)sc1C [2-(4-Bromophenyl)-N-(4,5-dimethylthiazol-2-yl)-3-thiophen-2-yl-acrylamide]	> 30
O=C(Nc1ccc(Br)cn1)C(=Cc1ccco1)c1ccc(Br)cc1 [2-(4-Bromophenyl)-N-(5-bromopyridin-2-yl)-3-furan-2-yl-acrylamide]	> 30
O=C(Nc1ccc(Br)cn1)C(=Cc1cccs1)c1ccc(Br)cc1 [2-(4-Bromophenyl)-N-(5-bromopyridin-2-yl)-3-thiophen-2-yl-acrylamide]	> 30
O=C(Nc1cnccn1)C(=Cc1cccs1)c1ccc(Br)cc1 [2-(4-Bromophenyl)-N-pyrazin-2-yl-3-thiophen-2-yl-acrylamide]	> 30
O=C(Nc1ccccn1)C(=Cc1cccs1)c1ccc(Br)cc1 [2-(4-Bromophenyl)-N-pyridin-2-yl-3-thiophen-2-yl-acrylamide]	> 30
O=C(Nc1ccncn1)C(=Cc1cccs1)c1ccc(Br)cc1 [2-(4-Bromophenyl)-N-pyrimidin-4-yl-3-thiophen-2-yl-acrylamide]	> 30

Structure (SMILES)	compound concentration that produced a 50% increase in GK activity (FA 1.5) [µM]
N#Cc1ccc(C(CC2CCOCC2)C(=O)Nc2nccs2)cc1 (stereo not shown) [2-(4-Cyanophenyl)-3-(tetrahydropyran-4-yl)-N-thiazol-2-yl-propionamide]	> 30
N#Cc1ccc(C(=Cc2ccco2)C(=O)Nc2nncs2)cc1 [2-(4-Cyanophenyl)-3-furan-2-yl-N-[1,3,4]thiadiazol-2-yl-acrylamide]	> 30
N#Cc1ccc(C(=Cc2ccccc2)C(=O)Nc2nncs2)cc1 [2-(4-Cyanophenyl)-3-phenyl-N-[1,3,4]thiadiazol-2-yl-acrylamide]	> 30
N#Cc1ccc(C(=Cc2ccccc2)C(=O)Nc2nccs2)cc1 [2-(4-Cyanophenyl)-3-phenyl-N-thiazol-2-yl-acrylamide]	> 30
CN(C)Cc1ccc(C(=CC2CCOCC2)C(=O)Nc2nccs2)cc1 [2-(4-Dimethylaminomethylphenyl)-3-(tetrahydropyran-4-yl)-N-thiazol-2-yl-acrylamide]	> 30
O=C(Nc1nccs1)C(CC1CCOCC1)c1ccc(S)cc1 (stereo not shown) [2-(4-Mercaptophenyl)-3-(tetrahydro-pyran-4-yl)-N-thiazol-2-ylpropionamide]	> 30
Cc1ccsc1C=C(C(=O)Nc1nccs1)c1ccc(S(C)(=O)=O)cc1 [2-(4-Methanesulfonylphenyl)-3-(3-methylthiophen-2-yl)-N-thiazol-2-yl-acrylamide]	> 30
CS(=O)(=O)c1ccc(C(CC2CCOCC2)C(=O)Nc2ncc(C(F)(F)F)s2)cc1 (stereo not shown) [2-(4-Methanesulfonylphenyl)-3-(tetrahydropyran-4-yl)-N-(5-trifluoromethylthiazol-2-yl)-propionamide]	> 30
CS(=O)(=O)c1ccc(C(CN2CCCCC2)C(=O)Nc2nccs2)cc1 (stereo not shown) [2-(4-Methanesulfonylphenyl)-3-piperidin-1-yl-N-thiazol-2-yl-propionamide]	> 30
CS(=O)(=O)c1ccc(C(=CC2CCNCC2)C(=O)Nc2nccs2)cc1 [2-(4-Methanesulfonylphenyl)-3-piperidin-4-yl-N-thiazol-2-yl-acrylamide]	> 30
CS(=O)(=O)c1ccc(C(=Cc2cccnc2)C(=O)Nc2nccs2)cc1 [2-(4-Methanesulfonylphenyl)-3-pyridin-3-yl-N-thiazol-2-yl-acrylamide]	> 30
CS(=O)(=O)c1ccc(C(CCC2CCOCC2)C(=O)Nc2nccs2)cc1 (stereo not shown) [2-(4-Methanesulfonylphenyl)-4-(tetrahydropyran-4-yl)-N-thiazol-2-yl-butyramide]	> 30
CS(=O)(=O)c1ccc(C(=CCC2CCOCC2)C(=O)Nc2nccs2)cc1 [2-(4-Methanesulfonylphenyl)-4-(tetrahydropyran-4-yl)-but-2-enoic acid thiazol-2-ylamide]	> 30
Cn1c(NC(=O)C(CC2CCOCC2)c2ccc(S(C)(=O)=O)cc2)nc2ccccc21 (stereo not shown) [2-(4-Methanesulfonylphenyl)-N-(1-methyl-1H-benzoimidazol-2-yl)-3-(tetrahydropyran-4-yl)propionamide]	> 30
CNCc1ccc(C(=CC2CCOCC2)C(=O)Nc2nccs2)cc1 [2-(4-Methylaminomethylphenyl)-3-(tetrahydropyran-4-yl)-N-thiazol-2-yl-acrylamide]	> 30
